Six molecules from article PMC6834558 can be followed below.

The chains behind the UniProt entries cited, without tags or fusion partners. Residues count along the entry.
UniProt P08581, residues 25-1390: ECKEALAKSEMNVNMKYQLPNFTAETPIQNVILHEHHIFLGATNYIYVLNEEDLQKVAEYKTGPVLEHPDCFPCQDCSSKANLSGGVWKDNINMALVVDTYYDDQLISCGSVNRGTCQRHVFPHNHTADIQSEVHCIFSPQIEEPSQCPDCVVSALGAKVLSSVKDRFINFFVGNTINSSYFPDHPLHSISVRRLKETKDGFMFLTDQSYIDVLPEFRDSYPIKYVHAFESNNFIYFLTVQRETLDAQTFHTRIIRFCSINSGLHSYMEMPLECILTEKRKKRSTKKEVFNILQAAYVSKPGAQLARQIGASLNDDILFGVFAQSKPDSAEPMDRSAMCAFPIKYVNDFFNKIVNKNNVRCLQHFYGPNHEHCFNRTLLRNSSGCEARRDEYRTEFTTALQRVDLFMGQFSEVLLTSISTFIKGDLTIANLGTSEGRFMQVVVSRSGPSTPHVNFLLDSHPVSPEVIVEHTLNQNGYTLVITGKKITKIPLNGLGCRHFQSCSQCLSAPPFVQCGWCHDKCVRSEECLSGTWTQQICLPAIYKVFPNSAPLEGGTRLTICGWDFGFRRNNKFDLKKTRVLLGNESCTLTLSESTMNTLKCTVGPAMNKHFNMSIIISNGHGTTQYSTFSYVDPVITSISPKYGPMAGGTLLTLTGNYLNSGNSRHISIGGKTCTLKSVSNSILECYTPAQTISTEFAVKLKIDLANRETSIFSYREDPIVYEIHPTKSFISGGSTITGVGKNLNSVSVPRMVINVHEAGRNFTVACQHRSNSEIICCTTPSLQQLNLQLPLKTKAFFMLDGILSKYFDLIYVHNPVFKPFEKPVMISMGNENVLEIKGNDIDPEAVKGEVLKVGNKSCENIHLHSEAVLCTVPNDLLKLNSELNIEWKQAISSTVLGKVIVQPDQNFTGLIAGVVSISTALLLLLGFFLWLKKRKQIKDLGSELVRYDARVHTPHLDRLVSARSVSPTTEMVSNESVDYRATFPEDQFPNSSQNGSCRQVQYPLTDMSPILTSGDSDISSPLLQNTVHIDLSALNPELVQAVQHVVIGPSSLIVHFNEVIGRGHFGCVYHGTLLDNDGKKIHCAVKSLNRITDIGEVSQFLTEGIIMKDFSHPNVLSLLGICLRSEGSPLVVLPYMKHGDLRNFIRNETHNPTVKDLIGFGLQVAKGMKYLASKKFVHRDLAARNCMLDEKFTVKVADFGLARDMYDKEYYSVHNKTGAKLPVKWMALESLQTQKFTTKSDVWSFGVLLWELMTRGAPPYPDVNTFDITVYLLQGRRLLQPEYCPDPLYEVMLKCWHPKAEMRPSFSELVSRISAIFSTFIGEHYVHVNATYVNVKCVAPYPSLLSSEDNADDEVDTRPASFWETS

No constants are given. Whether binding was seen depends on the method and setting. Binding seen in cells or lysates may run through a third protein. Some binding calls cover weakened binding; strength is not graded here. For part of these data: Tags and fused reporters may be left off the sequences shown.

Assay [1] deals with T1, EGFL9-V5 (overexpressed in HMLE/EGFL9 cells) (UniProt Q6UY11).
T1 sequence: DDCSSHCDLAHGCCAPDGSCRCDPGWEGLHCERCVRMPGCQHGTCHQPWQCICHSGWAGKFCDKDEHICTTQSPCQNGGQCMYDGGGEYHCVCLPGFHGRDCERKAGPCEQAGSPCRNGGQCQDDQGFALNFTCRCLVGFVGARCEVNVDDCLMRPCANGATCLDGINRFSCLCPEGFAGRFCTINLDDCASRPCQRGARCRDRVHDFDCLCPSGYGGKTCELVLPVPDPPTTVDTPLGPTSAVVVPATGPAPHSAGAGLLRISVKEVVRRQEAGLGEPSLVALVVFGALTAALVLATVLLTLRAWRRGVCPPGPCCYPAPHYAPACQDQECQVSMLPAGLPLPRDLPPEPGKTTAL
The assay can be described thus: co-IP; HMLE/EGFL9 cell lysate (10 mM CHAPS, 50 mM Tris-HCl pH 8, 150 mM NaCl, 0.5% NP-40, 2 mM EDTA); reciprocal: IP with anti-V5 and blot with anti-cMET, IP with anti-cMET and blot with anti-V5; 500 ug protein, 2 ug antibody, 12 h at 4 °C; IgG as IP control.

In assay [2] the target is T2, EGFL9-V5 (co-transfected with cMET constructs) (UniProt Q6UY11).
T2 sequence: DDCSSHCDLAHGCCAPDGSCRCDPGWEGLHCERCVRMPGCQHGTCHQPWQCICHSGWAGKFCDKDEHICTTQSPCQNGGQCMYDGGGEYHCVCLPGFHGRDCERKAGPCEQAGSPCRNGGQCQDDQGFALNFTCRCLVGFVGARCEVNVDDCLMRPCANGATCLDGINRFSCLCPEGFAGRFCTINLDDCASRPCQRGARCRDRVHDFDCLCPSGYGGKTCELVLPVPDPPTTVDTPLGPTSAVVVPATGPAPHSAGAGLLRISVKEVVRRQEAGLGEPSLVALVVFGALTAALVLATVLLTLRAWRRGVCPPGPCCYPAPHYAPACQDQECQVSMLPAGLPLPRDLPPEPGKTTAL
The assay can be described thus: co-IP; V5-IP of EGFL9 with co-transfected wild-type cMET or cMETdel; cells not stated (Supplementary Fig. 7c).

Assay [3] has as its target cMET (endogenous) (human (endogenous in HMLE and SUM159)) (UniProt P08581). The assay can be described thus: co-IP; HMLE/EGFL9 cell lysate (10 mM CHAPS, 50 mM Tris-HCl pH 8, 150 mM NaCl, 0.5% NP-40, 2 mM EDTA); reciprocal: IP with anti-V5 and blot with anti-cMET, IP with anti-cMET and blot with anti-V5; 500 ug protein, 2 ug antibody, 12 h at 4 °C; IgG as IP control.
The target is the same in assay [4]. The assay can be described thus: co-IP; SUM159 cell lysate, both proteins endogenous; IP with anti-cMET, blot with anti-EGFL9; IgG as IP control.
For assay [5], the target named is T3, EGFL9-VN (p3xFlag-CMV-EGFL9-VN) (UniProt Q6UY11).
T3 sequence: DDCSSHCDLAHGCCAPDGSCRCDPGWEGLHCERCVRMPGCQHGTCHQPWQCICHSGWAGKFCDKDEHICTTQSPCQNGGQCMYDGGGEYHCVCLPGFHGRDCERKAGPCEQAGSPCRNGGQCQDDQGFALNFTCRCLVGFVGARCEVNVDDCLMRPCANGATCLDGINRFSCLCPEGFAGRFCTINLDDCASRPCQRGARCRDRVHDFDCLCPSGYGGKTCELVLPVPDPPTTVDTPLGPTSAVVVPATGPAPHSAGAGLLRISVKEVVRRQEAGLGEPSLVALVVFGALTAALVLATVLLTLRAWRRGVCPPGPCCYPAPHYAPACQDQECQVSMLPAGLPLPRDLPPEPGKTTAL
The assay can be described thus: split reporter; BiFC with split Venus (VN 1-173, VC 155-239) in 293T cells, 1 ug of each plasmid, 48 h, live-cell confocal imaging.

Assay [6] deals with T4, EGFL9-V5 (pLent-6-EGFL9-V5, in 293T cells) (UniProt Q6UY11).
T4 sequence: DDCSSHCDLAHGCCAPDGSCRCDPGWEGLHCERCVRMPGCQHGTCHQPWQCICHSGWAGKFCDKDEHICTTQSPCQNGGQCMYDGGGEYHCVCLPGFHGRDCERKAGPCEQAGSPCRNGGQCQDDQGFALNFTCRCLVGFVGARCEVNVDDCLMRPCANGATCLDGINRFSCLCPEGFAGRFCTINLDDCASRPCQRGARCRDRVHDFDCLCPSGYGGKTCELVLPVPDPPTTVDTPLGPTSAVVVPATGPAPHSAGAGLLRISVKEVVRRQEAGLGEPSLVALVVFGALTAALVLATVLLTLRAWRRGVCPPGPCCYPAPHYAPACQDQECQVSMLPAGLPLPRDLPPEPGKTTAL
The assay can be described thus: co-IP; 293T cells co-transfected with pLent-6-EGFL9-V5 and p3xFlag-CMV-COA3; IP with anti-V5, blot with anti-Flag.

For “cMET (endogenous) (from UniProt P08581 25-1390) (receptor)”, the binding result in assay [1] is recorded as “binds”.
In the case of “wild-type cMET (co-transfected) (from UniProt P08581 25-1390) (receptor)”, in assay [2], the binding result was “binds”.

B1: EGFL9-V5 (overexpressed in HMLE/EGFL9 cells) (protein, UniProt Q6UY11 27-383)
chain: DDCSSHCDLAHGCCAPDGSCRCDPGWEGLHCERCVRMPGCQHGTCHQPWQCICHSGWAGKFCDKDEHICTTQSPCQNGGQCMYDGGGEYHCVCLPGFHGRDCERKAGPCEQAGSPCRNGGQCQDDQGFALNFTCRCLVGFVGARCEVNVDDCLMRPCANGATCLDGINRFSCLCPEGFAGRFCTINLDDCASRPCQRGARCRDRVHDFDCLCPSGYGGKTCELVLPVPDPPTTVDTPLGPTSAVVVPATGPAPHSAGAGLLRISVKEVVRRQEAGLGEPSLVALVVFGALTAALVLATVLLTLRAWRRGVCPPGPCCYPAPHYAPACQDQECQVSMLPAGLPLPRDLPPEPGKTTAL
With B1, in assay [3], the binding result was “binds”.

B2: EGFL9 (endogenous in SUM159 cells) (protein, UniProt Q6UY11 27-383)
chain: DDCSSHCDLAHGCCAPDGSCRCDPGWEGLHCERCVRMPGCQHGTCHQPWQCICHSGWAGKFCDKDEHICTTQSPCQNGGQCMYDGGGEYHCVCLPGFHGRDCERKAGPCEQAGSPCRNGGQCQDDQGFALNFTCRCLVGFVGARCEVNVDDCLMRPCANGATCLDGINRFSCLCPEGFAGRFCTINLDDCASRPCQRGARCRDRVHDFDCLCPSGYGGKTCELVLPVPDPPTTVDTPLGPTSAVVVPATGPAPHSAGAGLLRISVKEVVRRQEAGLGEPSLVALVVFGALTAALVLATVLLTLRAWRRGVCPPGPCCYPAPHYAPACQDQECQVSMLPAGLPLPRDLPPEPGKTTAL
For B2, the binding entry in assay [4] was “binds”.

B3: COA3-VC (p3xFlag-CMV-COA3-VC) (protein, UniProt Q9Y2R0 1-106)
chain: MASSGAGDPLDSKRGEAPFAQRIDPTREKLTPEQLHSMRQAELAQWQKVLPRRRTRNIVTGLGIGALVLAIYGYTFYSISQERFLDELEDEAKAARARALARASGS
In the case of B3, the binding result in assay [5] was “binds”.

B4: 3xFlag-COA3 (p3xFlag-CMV-COA3) (protein, UniProt Q9Y2R0 1-106)
chain: MASSGAGDPLDSKRGEAPFAQRIDPTREKLTPEQLHSMRQAELAQWQKVLPRRRTRNIVTGLGIGALVLAIYGYTFYSISQERFLDELEDEAKAARARALARASGS
Take B4: in assay [6], the binding entry was “binds”.
